Test system: RAW 264.7 cell line
Assay: In vitro cell viability (MTT)
Format: cell-based
Experimental: During inflammatory diseases development, immune cells such as macrophages play a critical role within inflammatory pathways, cytokines production and diapedesis. The influence of the nanoparticles in the cell viability was studied in the RAW 264.7 cell line using a colorimetric method. Cells were seeded in 96-well plates at a density of 8×10^3 cells/well in 100 μL of culture medium, and they were left overnight in the incubator. Afterwards, the nanoparticles at different concentrations were added to some wells, and milli-Q water diluted in medium to the control cells. Beside, nanoparticles alone in culture medium were also tested to check their interference with the absorbance. The plates were incubated for 24 hours and the yellow tetrazolium MTT (3-(4, 5-dimethylthiazolyl-2)-2,5-diphenyltetrazolium bromide) was added at a final concentration of 500 μg/mL and incubated for another hour. The MTT is reduced by metabolically active cells to form the purple formazan crystals. After the formation of the crystals, the medium was replaced by 1004 of DMSO to dissolve them and the absorbance was measured at 570 nm. The formula used to calculate the cell viability was the following: […]

C[C@@H]1C[C@H]2[C@@H]3CCC4=CC(=O)C=C[C@]4(C)[C@@]3(F)[C@@H](O)C[C@]2(C)[C@@]1(O)C(=O)COP(=O)(O)O [DSP, dexamethasone sodium phosphate]
concentration up to which no toxicity on macrophages: up to 1000 μg/ml

From patent US11642320B2, “Nanoparticulate prodrugs” (priority 2016, dated 2023)
